# About 1,800 (2.3%) of roughly 78,000 compounds were called active. Inconclusive results, whose numbers are uncertain, are shown with a selection of clear calls. Cut-off read from the data, not from the text of the source: active = inhibition above about 30%; inconclusive = mostly about 10% to 28%; inactive = weaker than that.
# Sequences of proteins named here, by UniProt entry; tags and fusion partners are left off. A change or cut given only in a name is not applied to a line headed by its entry.
# UniProt Q01638: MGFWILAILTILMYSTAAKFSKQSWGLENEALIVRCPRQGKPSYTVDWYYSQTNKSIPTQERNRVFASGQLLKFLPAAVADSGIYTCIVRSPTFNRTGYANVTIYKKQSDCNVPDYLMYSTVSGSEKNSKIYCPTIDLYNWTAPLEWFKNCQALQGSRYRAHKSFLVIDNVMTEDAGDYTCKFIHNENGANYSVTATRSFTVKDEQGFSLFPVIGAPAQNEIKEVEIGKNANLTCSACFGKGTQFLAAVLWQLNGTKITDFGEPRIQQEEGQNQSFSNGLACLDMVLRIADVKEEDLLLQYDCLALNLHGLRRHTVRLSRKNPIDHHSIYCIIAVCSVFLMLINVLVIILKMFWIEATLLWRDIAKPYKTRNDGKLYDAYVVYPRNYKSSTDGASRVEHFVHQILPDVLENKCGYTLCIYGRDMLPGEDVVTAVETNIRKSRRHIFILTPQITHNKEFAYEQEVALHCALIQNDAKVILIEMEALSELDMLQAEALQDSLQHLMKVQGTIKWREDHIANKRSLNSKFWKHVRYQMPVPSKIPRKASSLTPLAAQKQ
# Biological target: Interleukin-1 receptor-like 1 (Homo sapiens) (UniProt Q01638)
# Assay: blocks human ST2 binding to IL-33, primary screen, biochemical, AlphaLISA (AID 1259354)
# Conditions: AlphaLISA ST2-Fc/biotin-IL-33 interaction, 1 h; at 17 µM, active compounds read high
row,Structure (SMILES),inhibition
1,COc1ccc(C2CC(c3cccs3)=NN2c2ccccc2)cc1 (stereo unspecified),inconclusive: 15%
2,COc1ccc(N2C(=O)C3CCCCC3C2=O)cc1OC (stereo unspecified),inconclusive: 17%
3,COc1ccc(CN2CCN(Cc3ccc4c(c3)OCO4)CC2)c(C)c1C,inconclusive: 20%
4,COc1ccc(NC(=O)c2c(NC(=O)CNCCO)sc3c2CCC3)cc1,inconclusive: 14%
5,Cc1ccc(NC2=CC(=NS(=O)(=O)c3cccs3)c3ccccc3C2=O)c(C)c1,active: 89%
6,CCOC(=O)C1=C(C)OC(N)=C(C#N)C1c1ccc(OCc2ccccc2)cc1 (stereo unspecified),inconclusive: 24%
7,Cc1ccc2oc(-c3ccc(C)c(N)c3)nc2c1,inconclusive: 13%
8,Cc1nc(N(C)C)ncc1C(=O)N1CCN(C)C2(CCN(C)CC2)C1,inconclusive: 14%
9,O=C1c2cccnc2C(Nc2ccc(F)c(Cl)c2)N1Cc1ccccc1 (stereo unspecified),inconclusive: 21%
10,CCN(CC)Cc1cnc2c(C(=O)NC(C)c3csc(C)n3)cnn2c1 (stereo unspecified),inconclusive: 13%
11,CCN(CC)S(=O)(=O)c1ccc2oc(C(=O)NCCN3CCOCC3)c(C)c2c1,inconclusive: 10%
12,Cc1nc(N2CCOCC2)c2c(C)c(C(=O)Nc3ccc4c(c3)OCO4)sc2n1,inconclusive: 19%
13,CCC(CC)C(=O)NC1CCCCCC1,inactive
14,CCC(=O)N1CCc2cc(Br)cc(S(=O)(=O)N3CC=C(c4ccccc4)CC3)c21,inactive
15,CCCSc1nc2c(c(=O)n1-c1ccc(C)cc1)SCC2,inconclusive: 25%
16,C#CCN(Cc1ccc(F)cc1)C(=O)C1CCCN(C(=O)N(C)C)C1 (stereo unspecified),inconclusive: 14%
17,O=S(=O)(c1ccc(Cc2ccc(S(=O)(=O)N3CCOCC3)cc2)cc1)N1CCOCC1,inactive
18,COc1ccc2nc([C@H]3CCN(S(C)(=O)=O)C3)[nH]c2c1,inconclusive: 24%
19,COc1cc(C)ccc1C(=O)NCC(C)(C)OC,inconclusive: 18%
20,Cc1nc(C(C)NC(=O)Cn2c(C3CC3)nc3ccccc32)n[nH]1 (stereo unspecified),inconclusive: 17%
21,COC(=O)[C@@H]1Cc2nc[nH]c2CN1Cc1cc2ccccc2o1,inconclusive: 12%
22,Cc1c(C(=O)O)ccc2c1NC(c1cccc3ccccc13)C1CC=CC21 (stereo unspecified),inconclusive: 13%
23,OC(c1ccccn1)C1CCN(c2ncnc3[nH]ccc23)CC1 (stereo unspecified),inconclusive: 17%
24,Cc1cccc(-c2noc([C@@H]3C[C@@H](O)CN3CCCc3ccccc3)n2)c1,inconclusive: 11%
25,CN(C)S(=O)(=O)c1cc([N+](=O)[O-])ccc1N1CCCCCC1,inactive
26,C[C@H]1[C@@H]2[C@@H](O)C([C@H](C)C(=O)NCCN3CCCC3)CC[C@@]2(C)CC[C@@H]1NC(=O)CC(C)(C)C (stereo partly specified),inconclusive: 13%

# Some of these compounds in order of count of non-hydrogen atoms, falling.
row,Structure (SMILES),inhibition
14,CCC(=O)N1CCc2cc(Br)cc(S(=O)(=O)N3CC=C(c4ccccc4)CC3)c21,inactive
3,COc1ccc(CN2CCN(Cc3ccc4c(c3)OCO4)CC2)c(C)c1C,inconclusive: 20%
1,COc1ccc(C2CC(c3cccs3)=NN2c2ccccc2)cc1 (stereo unspecified),inconclusive: 15%
15,CCCSc1nc2c(c(=O)n1-c1ccc(C)cc1)SCC2,inconclusive: 25%
18,COc1ccc2nc([C@H]3CCN(S(C)(=O)=O)C3)[nH]c2c1,inconclusive: 24%
7,Cc1ccc2oc(-c3ccc(C)c(N)c3)nc2c1,inconclusive: 13%

# From PubChem BioAssay AID1259354 (Paczesny and Yang Labs, IUPUI and University of Michigan, 2018)
